For seven molecules, binding results are on record in patent US20220056118A1 (UNIVERSITY OF BRITISH COLUMBIA, published 2022).

By UniProt entry, the sequences of proteins in these tests, tags left out. Where a name states a change or a piece, a line headed by the entry shows the natural chain unless it says otherwise.
UniProt P02769: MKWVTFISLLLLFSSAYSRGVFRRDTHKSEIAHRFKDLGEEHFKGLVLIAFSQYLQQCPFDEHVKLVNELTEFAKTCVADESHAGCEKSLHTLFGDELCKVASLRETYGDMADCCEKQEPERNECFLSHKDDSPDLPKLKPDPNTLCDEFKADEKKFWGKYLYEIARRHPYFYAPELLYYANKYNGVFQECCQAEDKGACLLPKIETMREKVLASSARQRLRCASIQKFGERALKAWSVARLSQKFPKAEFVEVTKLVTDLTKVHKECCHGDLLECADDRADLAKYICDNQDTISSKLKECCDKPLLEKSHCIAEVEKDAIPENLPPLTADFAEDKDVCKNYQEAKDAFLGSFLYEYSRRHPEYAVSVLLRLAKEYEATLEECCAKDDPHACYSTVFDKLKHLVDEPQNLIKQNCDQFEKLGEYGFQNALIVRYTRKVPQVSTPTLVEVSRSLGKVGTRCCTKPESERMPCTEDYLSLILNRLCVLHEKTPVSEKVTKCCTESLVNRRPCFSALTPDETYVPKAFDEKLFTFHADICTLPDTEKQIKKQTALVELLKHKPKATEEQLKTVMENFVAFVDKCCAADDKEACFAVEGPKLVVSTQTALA

Assay [1] addresses HA-tagged Human TDP-43 with a triple missense tandem mutation in the nuclear localization signal (ΔNLS-TDP-43) (human) (UniProt Q13148). Description: summary table; column: Binding to ΔNLS TDP-43 cytoplasmic aggregates.
Assay [2] has the same target. Description: immunocytochemistry, transfected HEK293FT cells, 10 ug/ml; column: Binding to ΔNLS TDP-43 cytoplasmic aggregates.
Assay [3] has as its target DAGWGNLc (SEQ ID NO: 9) peptide conjugated to bovine serum albumin (human; bovine) (UniProt P02769). As to the kind of experiment: SPR, peptide-BSA immobilized. In general terms: In SPR one partner is held on a chip, and binding of the other changes the refractive index at the surface.
Assay [4] deals with HA-tagged Human TDP-43 with a triple missense tandem mutation in the nuclear localization signal (ΔNLS-TDP-43) (human) (UniProt Q13148). As to the kind of experiment: immunocytochemistry, legend of FIG. 6.
The target is the same in assay [5]. As to the kind of experiment: immunocytochemistry, transfected HEK293FT cells, antibody at 10 ug/ml.

Changes are numbered by the printed parent chain. Results are given in words; binding and its absence hold for the method and conditions named. Some binding calls cover weakened binding; strength is not graded here.

B1: rabbit monoclonal antibody 38 (38H1-38K1) (antibody, V domains shown)
VH: QSVEESGGRLVTPGTPLTLTCTVSGFSFSAYYMTWVRQAPGKGLEFIGVTIPIGRTYYASWAKGRFTISKTSTTVHLKITSPTTEDTAAYFCAGGPTGNSHFTLWGQGTLVTVS
VL: VMTQTPSSKSVPVGDTVTINCQASESVYNNNQLSWYQQKPGQPPKLLIYQASKLESGVPSRFKGSGSGTQFTLTISDVVCDDAATYYCAGYKSPTTDGIAFGGGTEVVVK
notes: Recombinant; also called clone 38
Consider B1, for which the binding result in assay [1] and in assay [2] was “binds” each time.

B2: rabbit monoclonal antibody 1 (1H3-1K3) (antibody, V domains shown)
VH: B1 VH with F28L, A30R, F46Y, T50I, I53G, R55T, H76D, K78R, A89T
VL: B1 VL with D15G, Q32H, P40S, Q50E, S60P, A89S, S93R, P94V
notes: Recombinant; also called Rabbit 1; clone 1
Take B2: the binding result in assay [3] is on record as “binds”.

B3: mouse monoclonal antibody 3E8 (antibody, V domains shown)
VH: DVKLVESGGGLVKLGGSLKLSCAASGFTFSSYYMSWVRQTPEKRLELVATINSNGGSTYYPDTVKGRITISRDNAKNTLQLQMSSLRSEDTALYYCVRQNYEGAYWGQGTLVTVSA
VL: DVLMTQTPLSLPVTLGDQASISCRSSQSIVHSNGNTYLEWYLQKPGQSPKLLIYKVSNRFSGVPDRFSGSGSGTDFTLKISRVEAEDLGVYYCFQSSHVPWTFGGGTKLEIK
notes: Mouse hybridoma antibody; also called Mouse 3E8
On to B3, for which the binding entry in assay [1], in assay [3] and in assay [2] was “binds” throughout.

B4: mouse monoclonal antibody 3F11 (antibody, V domains shown)
VH: B3 VH with G10D, T50V, S53T, I68F, Q80Y, R87K
VL: B3 VL with T14S
In the case of B4, the binding result in assay [1] and in assay [2] was “binds” each time.

B5: mouse monoclonal antibody 2F7 (antibody, V domains shown)
VH: B3 VH
VL: B3 VL
notes: Mouse hybridoma antibody; also called Mouse 2F7
As to B5, the binding result in assay [4], in assay [1], in assay [3], in assay [5] and in assay [2] was “binds” throughout.

B6: rabbit monoclonal antibody 14 (14H1-14K2) (antibody, V domains shown)
VH: QEQLEESGGDLVKPEGSLTLTCTASGFSFSSNYVMCWVRQAPGKGLEWVACIWFAGIVDTTYYATWAKGRFTISKTSSTTVTLQMTSLTAADTATYFCARNPVGSVNLWGQGTLVTVS
VL: VMTQTPSSKSVPVGGSVTINCQASESVYSNNRLSWYQQKPGQPPKLLIYYASTLESGVPSRFKGSGFGTHFTLTISGAQCDDAATYYCAGWRGARTDGVDFGGGTEVVVK
notes: Recombinant; also called Rabbit 14; clone 14
Regarding B6, the binding entry in assay [1], in assay [3] and in assay [2] was “binds” in each case.

B7: rabbit monoclonal antibody 17 (17H3-17K3) (antibody, V domains shown)
VH: QEQLVESGGGLVQPGASLTLTCTASGFSFSSSYVMCWVRQAPGKGLEWITCSDTGINTWYASWAKGRFTISKTSSTTVTLQMTSLTAADTATYFCARRYTGDTYLGNFNLWGQGTLVTVS
VL: AQVLTQTPASVSAAVGGTVTINCQASQSVYKNNYLSWYQQKPGQPPKLLIYKASTLASGVPSRFKGSGSGTQFTLTISDVQCDDAATYYCAGGWRSLNAFGGGTEVVVK
notes: Recombinant; also called Rabbit 17; clone 17
Consider B7, for which the binding result in assay [3] is listed as “binds”.
